# Reference: the supplement of paper PMC8728848
# This is one part of the list.
# B1: Latrophilin-3 (Homo sapiens), Q9HAR2 (protein)
# chain: MWPSQLLIFMMLLAPIIHAFSRAPIPMAVVRRELSCESYPIELRCPGTDVIMIESANYGRTDDKICDSDPAQMENIRCYLPDAYKIMSQRCNNRTQCAVVAGPDVFPDPCPGTYKYLEVQYECVPYKVEQKVFLCPGLLKGVYQSEHLFESDHQSGAWCKDPLQASDKIYYMPWTPYRTDTLTEYSSKDDFIAGRPTTTYKLPHRVDGTGFVVYDGALFFNKERTRNIVKFDLRTRIKSGEAIIANANYHDTSPYRWGGKSDIDLAVDENGLWVIYATEQNNGKIVISQLNPYTLRIEGTWDTAYDKRSASNAFMICGILYVVKSVYEDDDNEATGNKIDYIYNTDQSKDSLVDVPFPNSYQYIAAVDYNPRDNLLYVWNNYHVVKYSLDFGPLDSRSGQAHHGQVSYISPPIHLDSELERPSVKDISTTGPLGMGSTTTSTTLRTTTLSPGRSTTPSVSGRRNRSTSTPSPAVEVLDDMTTHLPSASSQIPALEESCEAVEAREIMWFKTRQGQIAKQPCPAGTIGVSTYLCLAPDGIWDPQGPDLSNCSSPWVNHITQKLKSGETAANIARELAEQTRNHLNAGDITYSVRAMDQLVGLLDVQLRNLTPGGKDSAARSLNKAMVETVNNLLQPQALNAWRDLTTSDQLRAATMLLHTVEESAFVLADNLLKTDIVRENTDNIKLEVARLSTEGNLEDLKFPENMGHGSTIQLSANTLKQNGRNGEIRVAFVLYNNLGPYLSTENASMKLGTEALSTNHSVIVNSPVITAAINKEFSNKVYLADPVVFTVKHIKQSEENFNPNCSFWSYSKRTMTGYWSTQGCRLLTTNKTHTTCSCNHLTNFAVLMAHVEVKHSDAVHDLLLDVITWVGILLSLVCLLICIFTFCFFRGLQSDRNTIHKNLCISLFVAELLFLIGINRTDQPIACAVFAALLHFFFLAAFTWMFLEGVQLYIMLVEVFESEHSRRKYFYLVGYGMPALIVAVSAAVDYRSYGTDKVCWLRLDTYFIWSFIGPATLIIMLNVIFLGIALYKMFHHTAILKPESGCLDNIKSWVIGAIALLCLLGLTWAFGLMYINESTVIMAYLFTIFNSLQGMFIFIFHCVLQKKVRKEYGKCLRTHCCSGKSTESSIGSGKTSGSRTPGRYSTGSQSRIRRMWNDTVRKQSESSFITGDINSSASLNREGLLNNARDTSVMDTLPLNGNHGNSYSIASGEYLSNCVQIIDRGYNHNETALEKKILKELTSNYIPSYLNNHERSSEQNRNLMNKLVNNLGSGREDDAIVLDDATSFNHEESLGLELIHEESDAPLLPPRVYSTENHQPHHYTRRRIPQDHSESFFPLLTNEHTEDLQSPHRDSLYTSMPTLAGVAATESVTTSTQTEPPPAKCGDAEDVYYKSMPNLGSRNHVHQLHTYYQLGRGSSDGFIVPPNKDGTPPEGSSKGPAHLVTSL
# Legend:
# Test in all cases: glycan array binding signal (z-score within array); higher = stronger binding
# Conditions in all cases: glycan notation: IUPAC condensed, linker removed
# [1] = target: GlcNAc(b1-6)Gal(b1-4)GlcNAc
# In short: (§1)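 Columns mapping to the same glycan were averaged after glycan names were converted to IUPAC-condensed notation. The data come from 3228 arrays in the Consortium for Functional Glycomics database, limited to those with an available protein sequence. Binding is reported as a within-array Z-score averaged across arrays of one protein sequence and across linkers.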
# [2] = target: GlcNAc(b1-6)GalNAc
# In short: as §1
# [3] = target: GlcNAc3Prop(b1-4)GlcNAc
# In short: as §1
# [4] = target: GlcNAc6S(b1-3)Gal(b1-4)GlcNAc
# In short: as §1
# [5] = target: Kdn(a2-3)Gal(b1-3)GalNAc
# In short: as §1
# [6] = target: Kdn(a2-3)Gal(b1-3)GlcNAc
# In short: as §1
# [7] = target: Kdn(a2-3)Gal(b1-4)Glc
# In short: as §1
# [8] = target: Kdn(a2-3)Gal(b1-4)GlcNAc
# In short: as §1
# [9] = target: Kdn(a2-3)Gal(b1-4)[Fuc(a1-3)]GlcNAc
# In short: as §1
# [10] = target: Kdn(a2-6)Gal(b1-4)GlcNAc
# In short: as §1
# [11] = target: Man(a1-2)Man(a1-2)Man(a1-3)Man
# In short: as §1
# [12] = target: Man(a1-2)Man(a1-2)Man(a1-6)[Man(a1-3)]Man
# In short: as §1
# [13] = target: Man(a1-2)Man(a1-3)Man
# In short: as §1
# [14] = target: Man(a1-2)Man(a1-3)[Man(a1-2)Man(a1-6)]Man
# In short: as §1
# [15] = target: Man(a1-2)Man(a1-3)[Man(a1-2)Man(a1-6)]Man(a1-6)[Man(a1-2)Man(a1-2)Man(a1-3)]Man
# In short: as §1
# [16] = target: Man(a1-2)Man(a1-3)[Man(a1-2)Man(a1-6)]Man(a1-6)[Man(a1-2)Man(a1-2)Man(a1-3)]Man(b1-4)GlcNAc(b1-4)GlcNAc
# In short: as §1
# [17] = target: Man(a1-2)Man(a1-3)[Man(a1-6)]Man(a1-6)[Man(a1-2)Man(a1-3)]Man(b1-4)GlcNAc(b1-4)GlcNAc
# In short: as §1
# [18] = target: Man(a1-2)Man(a1-6)[Man(a1-3)]Man(a1-6)[Man(a1-2)Man(a1-2)Man(a1-3)]Man
# In short: as §1
# [19] = target: Man(a1-2)Man(a1-6)[Man(a1-3)]Man(a1-6)[Man(a1-2)Man(a1-2)Man(a1-3)]Man(b1-4)GlcNAc(b1-4)GlcNAc
# In short: as §1
# [20] = target: Man(a1-3)[Man(a1-6)]Man
# In short: as §1
# [21] = target: Man(a1-3)[Man(a1-6)]Man(a1-6)[Man(a1-2)Man(a1-3)]Man(b1-4)GlcNAc(b1-4)GlcNAc
# In short: as §1
# [22] = target: Man(a1-3)[Man(a1-6)]Man(a1-6)[Man(a1-3)]Man
# In short: as §1
# [23] = target: Man(a1-3)[Man(a1-6)]Man(a1-6)[Man(a1-3)]Man(b1-4)GlcNAc(b1-4)GlcNAc
# In short: as §1
# [24] = target: Man(a1-3)[Man(a1-6)]Man(b1-4)GlcNAc(b1-4)GlcNAc
# In short: as §1
# [25] = target: Man(a1-3)[Man(a1-6)]Man(b1-4)GlcNAc(b1-4)[Fuc(a1-6)]GlcNAc
# In short: as §1
# [26] = target: Man(a1-6)Man
# In short: as §1
# [27] = target: Man(b1-4)GlcNAc
# In short: as §1
# [28] = target: Neu5Ac(a2-3)Gal
# In short: as §1
# [29] = target: Neu5Ac(a2-3)Gal(b1-3)GalNAc
# In short: as §1
# [30] = target: Neu5Ac(a2-3)Gal(b1-3)GalNAc(b1-3)Gal(a1-4)Gal(b1-4)Glc
# In short: as §1
# [31] = target: Neu5Ac(a2-3)Gal(b1-3)GalNAc(b1-4)[Neu5Ac(a2-3)]Gal(b1-4)Glc
# In short: as §1
# [32] = target: Neu5Ac(a2-3)Gal(b1-3)GalNAc(b1-4)[Neu5Ac(a2-8)Neu5Ac(a2-3)]Gal(b1-4)Glc
# In short: as §1
# [33] = target: Neu5Ac(a2-3)Gal(b1-3)GalNAc6S
# In short: as §1
# [34] = target: Neu5Ac(a2-3)Gal(b1-3)GlcNAc
# In short: as §1
# [35] = target: Neu5Ac(a2-3)Gal(b1-3)GlcNAc(b1-2)Man(a1-3)[GlcNAc(b1-4)][Neu5Ac(a2-3)Gal(b1-3)GlcNAc(b1-2)Man(a1-6)]Man(b1-4)GlcNAc(b1-4)GlcNAc
# In short: as §1
# [36] = target: Neu5Ac(a2-3)Gal(b1-3)GlcNAc(b1-3)Gal(b1-3)GlcNAc
# In short: as §1
# [37] = target: Neu5Ac(a2-3)Gal(b1-3)GlcNAc(b1-3)Gal(b1-4)GlcNAc
# In short: as §1
# [38] = target: Neu5Ac(a2-3)Gal(b1-3)GlcNAc(b1-3)GalNAc
# In short: as §1
# [39] = target: Neu5Ac(a2-3)Gal(b1-3)GlcNAc(b1-6)GalNAc
# In short: as §1
# [40] = target: Neu5Ac(a2-3)Gal(b1-3)GlcNAc6S
# In short: as §1
# [41] = target: Neu5Ac(a2-3)Gal(b1-3)[Fuc(a1-4)]GlcNAc
# In short: as §1
# [42] = target: Neu5Ac(a2-3)Gal(b1-3)[Fuc(a1-4)]GlcNAc(b1-3)Gal(b1-3)[Fuc(a1-4)]GlcNAc
# In short: as §1
# [43] = target: Neu5Ac(a2-3)Gal(b1-3)[Fuc(a1-4)]GlcNAc(b1-3)Gal(b1-4)[Fuc(a1-3)]GlcNAc
# In short: as §1
# [44] = target: Neu5Ac(a2-3)Gal(b1-3)[Neu5Ac(a2-3)Gal(b1-4)]GlcNAc
# In short: as §1
# [45] = target: Neu5Ac(a2-3)Gal(b1-3)[Neu5Ac(a2-6)]GalNAc
# In short: as §1
binder,measurement,setting,value
B1,glycan array binding signal (z-score),[1],-0.645
same,glycan array binding signal (z-score),[2],-1.33
same,glycan array binding signal (z-score),[3],0.321
same,glycan array binding signal (z-score),[4],0.203
same,glycan array binding signal (z-score),[5],0.824
same,glycan array binding signal (z-score),[6],-0.098
same,glycan array binding signal (z-score),[7],0.542
same,glycan array binding signal (z-score),[8],-1.49
same,glycan array binding signal (z-score),[9],-0.695
same,glycan array binding signal (z-score),[10],0.36
same,glycan array binding signal (z-score),[11],0.194
same,glycan array binding signal (z-score),[12],0.043
same,glycan array binding signal (z-score),[13],-0.765
same,glycan array binding signal (z-score),[14],-1.71
same,glycan array binding signal (z-score),[15],0.047
same,glycan array binding signal (z-score),[16],1.12
same,glycan array binding signal (z-score),[17],2.59
same,glycan array binding signal (z-score),[18],0.474
same,glycan array binding signal (z-score),[19],-1.18
same,glycan array binding signal (z-score),[20],0.197
same,glycan array binding signal (z-score),[21],-0.495
same,glycan array binding signal (z-score),[22],-0.752
same,glycan array binding signal (z-score),[23],-0.939
same,glycan array binding signal (z-score),[24],-1.18
same,glycan array binding signal (z-score),[25],-0.069
same,glycan array binding signal (z-score),[26],-1.15
same,glycan array binding signal (z-score),[27],-0.134
same,glycan array binding signal (z-score),[28],-0.858
same,glycan array binding signal (z-score),[29],0.078
same,glycan array binding signal (z-score),[30],0.165
same,glycan array binding signal (z-score),[31],-0.585
same,glycan array binding signal (z-score),[32],-0.226
same,glycan array binding signal (z-score),[33],0.148
same,glycan array binding signal (z-score),[34],0.549
same,glycan array binding signal (z-score),[35],-0.668
same,glycan array binding signal (z-score),[36],-1.16
same,glycan array binding signal (z-score),[37],0.349
same,glycan array binding signal (z-score),[38],-0.376
same,glycan array binding signal (z-score),[39],-0.588
same,glycan array binding signal (z-score),[40],-0.509
same,glycan array binding signal (z-score),[41],-0.042
same,glycan array binding signal (z-score),[42],6.27
same,glycan array binding signal (z-score),[43],-0.352
same,glycan array binding signal (z-score),[44],-0.731
same,glycan array binding signal (z-score),[45],0.232

# Part of the list above in a different format.
binder	measurement	setting	value
B1	glycan array binding signal (z-score)	[16]	1.12
same	glycan array binding signal (z-score)	[17]	2.59
